Source: US20130210034A1, “COMPLEX PHOSPHOPROTEIN ACTIVATION PROFILES” (BECKMAN COULTER, INC., priority 2005, published 2013)
For at least one compound, name, drawing or mass did not settle the structure.

System: pS6
Assay: Phosphoprotein kinetic profiles in bone marrow samples from healthy donors
Type: cell-based, human
Procedure: Phosphoprotein kinetic profiles were analyzed in bone marrow aspiration samples from nine healthy, adult donors (i.e., normal bone marrow or NBM) and from five AML patients. Samples from healthy donors included 5 males and 4 females, ranging in age from 26 to 49 years. Approximately 10 to 20 mL of bone marrow (BM) samples were collected from the posterior iliac crest of the volunteers using IRB approved protocols. The BM samples were filtered using a 40 μm Nylon cell strainer to remove marrow particles and the white blood cell concentration determined using a blood analyzer. […] The samples were immediately used for subsequent experimentation. […]
To stain cells with fluorescent conjugated monoclonal antibodies, the incubated solution was centrifuged to remove the supernatant and the pellet was incubated for 60 minutes at 4° C. with an antibody staining solution including 0.25 μg to 0.50 μg of pS6-Pacific Blue, pERK-ALEXA 488, pSTAT5-ALEXA 647, CD34-PE, CD45-PerCP, and CD117-PC7. Samples were washed three times with ice-cold Wash Buffer supplemented with 1×PIC, resuspended in 0.5 mL ice-cold Wash Buffer supplemented with 1×PIC including 0.5 μg/mL DAPI, and analyzed by flow cytometryusing a BD LSR II Flow Cytometer, equipped with a High Throughput Sampler (HTS). […]

Compound: CO[C@H]1C[C@@H]2CC[C@@H](C)[C@@](O)(O2)C(=O)C(=O)N2CCCC[C@H]2C(=O)O[C@H]([C@H](C)C[C@@H]2CC[C@@H](O)[C@H](OC)C2)CC(=O)[C@H](C)/C=C(\C)[C@@H](O)[C@@H](OC)C(=O)[C@H](C)C[C@H](C)/C=C/C=C/C=C/1C [rapamycin, reference compound]
- Inhibition of SCF-stimulated S6 phosphorylation (at 10 min, 1 μg/mL rapamycin): partially blocked
- Inhibition of SCF-stimulated S6 phosphorylation (rapamycin combined with U0126): completely inhibited
